Results: patent US12419871B2, “Biomolecules involved in Alzheimer's disease” (ELECTROPHORETICS LIMITED, priority 2015, dated 2025)

Assay: TMTcalibrator quantification of regulated proteins in AD CSF versus control
Design: species or system human
Settings: CSF of AD patient versus control; non-modified peptides of each protein summed for three control and three AD cases

Substance	Log2 AD/Control
Q13838	0.85
P01303	0.86
Q13283	0.68
Q99418	0.77
P07203	1.13
Q7LBR1	0.66
Q9NVJ2	0.94
Q9BXV9	0.70
Q9Y3E1	−0.67
O43776	1.37
Q03013	1.09
Q9HCU4	0.68
P31040	1.05
Q9BXJ9	0.95
Q9Y6V0	0.93
Q5SW79	0.92
P24821	0.73
P23471	0.90
Q9NZH0	0.97
Q8NI60	0.78
Q6EMK4	0.80

Substance	Log2 AD/Control
Q5TZA2	0.77
P04114	0.70
Q99523	0.68
Q709C8	1.45
P16403	1.33
Q9UQM7	0.81
O43353	0.78
P02100	1.50
P16157	0.86
P03950	−0.76
P61129	1.08
Q9Y4C0	0.93
P17600	0.95
Q9HDB5	0.98
P49006	0.95
O75190	1.27
Q9NVH1	0.94
Q15334	0.74
Q53FP2	0.87
P31321	1.56
P50570	0.89

Substance	Log2 AD/Control
Q92777	0.86
P05067	0.90
P28066	1.08
P78371	0.69
Q9P225	1.15
P60174	1.00
Q9BWS9	0.85
P29972	0.90
P02763	−1.03
Q16186	1.29
Q16878	1.32
Q96P47	0.66
Q99250	0.80
Q8N8Y2	1.66
P63092	1.00
P32119	0.96
P00740	−0.73
O75367	0.67
Q15746	1.08
Q9UHD9	1.15
P06241	0.79
